Key:
MCF7 [1] = experiment: cells; conditions: Homo sapiens, MCF7, 72 h
MCF7 [2] = experiment: cells; conditions: Homo sapiens, MCF7, 96 h

CC(=O)O[C@H]1C(=O)[C@@]2(C)[C@H]([C@H](OC(=O)c3ccccc3)[C@]3(O)C[C@H](OC(=O)[C@H](O)[C@@H](NC(=O)c4ccccc4)c4ccccc4)C(C)=C1C3(C)C)[C@]1(OC(C)=O)CO[C@@H]1C[C@@H]2O [PACLITAXEL]
IC50 (MCF7 [1]): 2.87 nM | IC50 (MCF7 [2]): 0.5 nM

Source: ChEMBL document CHEMBL1134969, “Synthesis and evaluation of water-soluble paclitaxel prodrugs” (Bioorg Med Chem Lett, 2002)
